# Measured values reported in the supplement of paper PMC7666118.
# By UniProt entry, the sequences of proteins in these tests, tags left out. Where a name states a change or a piece, a line headed by the entry shows the natural chain unless it says otherwise.
# UniProt O95139, whole entry: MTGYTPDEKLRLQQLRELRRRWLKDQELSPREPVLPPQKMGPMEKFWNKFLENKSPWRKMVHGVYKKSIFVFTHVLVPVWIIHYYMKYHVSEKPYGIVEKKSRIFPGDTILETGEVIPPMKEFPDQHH
# UniProt P54802: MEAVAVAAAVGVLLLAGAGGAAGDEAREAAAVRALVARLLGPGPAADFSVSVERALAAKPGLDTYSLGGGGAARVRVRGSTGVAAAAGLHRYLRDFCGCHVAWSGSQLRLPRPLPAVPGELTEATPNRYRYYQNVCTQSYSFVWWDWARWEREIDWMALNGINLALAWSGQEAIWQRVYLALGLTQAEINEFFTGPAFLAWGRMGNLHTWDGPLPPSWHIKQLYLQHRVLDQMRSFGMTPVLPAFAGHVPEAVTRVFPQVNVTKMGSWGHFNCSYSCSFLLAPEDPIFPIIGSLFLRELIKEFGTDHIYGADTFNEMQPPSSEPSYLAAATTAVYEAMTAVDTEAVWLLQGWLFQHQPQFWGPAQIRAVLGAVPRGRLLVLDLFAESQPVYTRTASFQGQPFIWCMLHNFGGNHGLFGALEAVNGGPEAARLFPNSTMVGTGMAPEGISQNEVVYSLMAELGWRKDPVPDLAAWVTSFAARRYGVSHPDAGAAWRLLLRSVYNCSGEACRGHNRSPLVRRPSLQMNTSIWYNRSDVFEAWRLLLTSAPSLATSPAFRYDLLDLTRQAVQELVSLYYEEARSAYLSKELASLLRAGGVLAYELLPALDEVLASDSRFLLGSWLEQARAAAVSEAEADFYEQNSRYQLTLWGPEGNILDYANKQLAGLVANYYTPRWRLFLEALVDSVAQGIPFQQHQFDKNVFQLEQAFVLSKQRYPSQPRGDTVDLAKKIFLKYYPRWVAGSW
# UniProt Q8TDX7: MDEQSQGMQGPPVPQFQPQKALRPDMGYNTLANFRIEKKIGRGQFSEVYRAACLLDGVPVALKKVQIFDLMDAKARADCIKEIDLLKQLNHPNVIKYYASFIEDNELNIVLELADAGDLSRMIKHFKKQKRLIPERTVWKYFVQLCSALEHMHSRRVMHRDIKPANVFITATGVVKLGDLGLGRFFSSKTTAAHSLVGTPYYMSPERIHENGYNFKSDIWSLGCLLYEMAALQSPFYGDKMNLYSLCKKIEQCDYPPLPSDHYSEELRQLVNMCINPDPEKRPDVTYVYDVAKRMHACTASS
# UniProt Q9Y217: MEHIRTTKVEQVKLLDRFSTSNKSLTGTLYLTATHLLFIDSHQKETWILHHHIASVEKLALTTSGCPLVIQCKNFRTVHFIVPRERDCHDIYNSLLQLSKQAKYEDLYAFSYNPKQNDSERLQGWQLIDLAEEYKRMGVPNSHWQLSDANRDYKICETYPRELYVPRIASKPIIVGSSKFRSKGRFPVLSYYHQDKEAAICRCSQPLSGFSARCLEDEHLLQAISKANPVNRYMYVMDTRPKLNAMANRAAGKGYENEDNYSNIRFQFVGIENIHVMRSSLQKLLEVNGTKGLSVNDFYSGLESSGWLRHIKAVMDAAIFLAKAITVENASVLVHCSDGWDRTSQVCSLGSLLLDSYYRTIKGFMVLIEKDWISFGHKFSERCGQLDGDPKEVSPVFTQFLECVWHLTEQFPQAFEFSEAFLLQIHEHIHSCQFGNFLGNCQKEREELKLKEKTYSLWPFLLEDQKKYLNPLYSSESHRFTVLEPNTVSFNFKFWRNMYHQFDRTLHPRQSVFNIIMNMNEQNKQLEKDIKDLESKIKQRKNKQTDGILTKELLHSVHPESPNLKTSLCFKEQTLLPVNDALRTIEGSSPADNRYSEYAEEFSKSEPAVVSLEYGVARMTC
# UniProt O15239, whole entry: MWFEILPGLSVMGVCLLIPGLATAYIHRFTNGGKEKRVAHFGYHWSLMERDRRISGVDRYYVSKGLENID
# UniProt P55786: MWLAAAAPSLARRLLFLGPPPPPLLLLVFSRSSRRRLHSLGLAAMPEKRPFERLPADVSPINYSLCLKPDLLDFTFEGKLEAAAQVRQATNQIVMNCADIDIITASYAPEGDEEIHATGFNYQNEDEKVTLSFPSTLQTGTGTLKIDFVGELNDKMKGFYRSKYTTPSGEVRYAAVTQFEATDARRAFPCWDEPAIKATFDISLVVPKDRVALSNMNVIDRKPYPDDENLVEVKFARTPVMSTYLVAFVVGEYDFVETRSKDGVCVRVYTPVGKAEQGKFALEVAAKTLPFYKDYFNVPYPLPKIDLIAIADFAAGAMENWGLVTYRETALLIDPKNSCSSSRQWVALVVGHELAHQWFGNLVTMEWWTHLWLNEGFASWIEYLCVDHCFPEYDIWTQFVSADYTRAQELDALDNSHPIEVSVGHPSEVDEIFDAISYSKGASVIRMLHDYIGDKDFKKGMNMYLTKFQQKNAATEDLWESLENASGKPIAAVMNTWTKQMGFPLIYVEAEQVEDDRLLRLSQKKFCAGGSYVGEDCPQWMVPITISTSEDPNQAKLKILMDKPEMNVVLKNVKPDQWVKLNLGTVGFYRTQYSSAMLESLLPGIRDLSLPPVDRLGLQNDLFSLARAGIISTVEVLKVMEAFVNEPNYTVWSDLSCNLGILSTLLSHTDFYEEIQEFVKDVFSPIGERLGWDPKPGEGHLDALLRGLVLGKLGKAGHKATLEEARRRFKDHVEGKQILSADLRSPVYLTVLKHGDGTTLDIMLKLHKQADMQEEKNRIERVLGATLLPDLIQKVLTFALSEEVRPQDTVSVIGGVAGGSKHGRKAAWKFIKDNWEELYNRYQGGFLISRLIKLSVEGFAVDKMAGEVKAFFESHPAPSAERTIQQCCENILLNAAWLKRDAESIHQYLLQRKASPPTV
# UniProt A2RRP1: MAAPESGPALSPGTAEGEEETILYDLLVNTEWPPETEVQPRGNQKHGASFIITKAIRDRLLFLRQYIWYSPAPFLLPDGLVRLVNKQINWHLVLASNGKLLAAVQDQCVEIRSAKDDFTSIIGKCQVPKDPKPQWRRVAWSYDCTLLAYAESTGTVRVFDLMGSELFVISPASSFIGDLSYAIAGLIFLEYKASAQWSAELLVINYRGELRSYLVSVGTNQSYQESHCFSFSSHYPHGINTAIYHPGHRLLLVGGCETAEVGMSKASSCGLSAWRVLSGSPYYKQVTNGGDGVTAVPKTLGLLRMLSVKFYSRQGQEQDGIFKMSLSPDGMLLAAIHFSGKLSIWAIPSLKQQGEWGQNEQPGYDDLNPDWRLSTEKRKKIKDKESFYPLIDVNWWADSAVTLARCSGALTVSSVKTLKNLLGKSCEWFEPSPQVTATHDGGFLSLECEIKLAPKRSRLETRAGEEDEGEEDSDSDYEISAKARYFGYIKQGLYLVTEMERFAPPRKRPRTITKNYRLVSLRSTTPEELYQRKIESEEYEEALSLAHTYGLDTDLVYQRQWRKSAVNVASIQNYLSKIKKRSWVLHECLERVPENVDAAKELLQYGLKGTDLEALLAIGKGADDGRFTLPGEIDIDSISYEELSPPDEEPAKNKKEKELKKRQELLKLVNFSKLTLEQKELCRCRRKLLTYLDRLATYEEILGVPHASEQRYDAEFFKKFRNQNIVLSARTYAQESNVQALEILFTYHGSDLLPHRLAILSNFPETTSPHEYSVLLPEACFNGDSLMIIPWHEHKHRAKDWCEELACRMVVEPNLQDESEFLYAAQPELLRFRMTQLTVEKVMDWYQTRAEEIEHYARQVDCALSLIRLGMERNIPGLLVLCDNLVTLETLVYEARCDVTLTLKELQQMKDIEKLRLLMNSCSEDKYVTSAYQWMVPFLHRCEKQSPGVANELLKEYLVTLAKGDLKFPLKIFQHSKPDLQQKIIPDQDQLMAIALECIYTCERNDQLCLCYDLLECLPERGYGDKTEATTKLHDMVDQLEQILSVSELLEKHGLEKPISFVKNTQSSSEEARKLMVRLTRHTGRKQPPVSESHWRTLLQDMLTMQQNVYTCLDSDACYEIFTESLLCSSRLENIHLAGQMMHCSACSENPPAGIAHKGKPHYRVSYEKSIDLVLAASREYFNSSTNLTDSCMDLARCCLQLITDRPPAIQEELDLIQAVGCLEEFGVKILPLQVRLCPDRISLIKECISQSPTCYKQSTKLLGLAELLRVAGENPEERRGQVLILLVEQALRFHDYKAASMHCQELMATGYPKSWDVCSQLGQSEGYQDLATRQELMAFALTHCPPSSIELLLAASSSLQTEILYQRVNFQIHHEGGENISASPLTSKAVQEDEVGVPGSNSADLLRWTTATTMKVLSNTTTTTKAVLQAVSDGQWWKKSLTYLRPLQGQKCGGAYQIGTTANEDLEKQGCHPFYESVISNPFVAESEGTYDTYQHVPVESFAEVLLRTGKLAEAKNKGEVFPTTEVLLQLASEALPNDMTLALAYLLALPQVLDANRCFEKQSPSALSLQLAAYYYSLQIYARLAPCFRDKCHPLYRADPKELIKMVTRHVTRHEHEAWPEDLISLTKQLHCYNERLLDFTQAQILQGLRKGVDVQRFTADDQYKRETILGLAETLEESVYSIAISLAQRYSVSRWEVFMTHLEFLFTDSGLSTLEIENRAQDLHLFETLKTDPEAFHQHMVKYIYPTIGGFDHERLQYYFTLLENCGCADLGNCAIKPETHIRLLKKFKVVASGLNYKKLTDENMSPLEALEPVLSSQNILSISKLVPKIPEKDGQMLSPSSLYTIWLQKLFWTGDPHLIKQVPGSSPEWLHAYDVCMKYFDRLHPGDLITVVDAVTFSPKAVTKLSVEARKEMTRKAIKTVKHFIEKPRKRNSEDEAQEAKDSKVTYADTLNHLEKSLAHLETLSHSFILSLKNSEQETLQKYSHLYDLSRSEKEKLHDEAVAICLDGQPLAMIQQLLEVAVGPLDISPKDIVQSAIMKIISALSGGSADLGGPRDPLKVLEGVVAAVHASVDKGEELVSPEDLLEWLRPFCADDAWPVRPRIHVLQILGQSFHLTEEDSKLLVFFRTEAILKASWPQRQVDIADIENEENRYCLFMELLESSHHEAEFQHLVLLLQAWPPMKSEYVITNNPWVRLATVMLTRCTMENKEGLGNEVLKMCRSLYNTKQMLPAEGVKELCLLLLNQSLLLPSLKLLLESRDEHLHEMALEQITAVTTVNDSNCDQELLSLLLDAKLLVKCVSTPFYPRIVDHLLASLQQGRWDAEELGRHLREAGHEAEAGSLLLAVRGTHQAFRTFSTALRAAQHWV
# UniProt Q96E11: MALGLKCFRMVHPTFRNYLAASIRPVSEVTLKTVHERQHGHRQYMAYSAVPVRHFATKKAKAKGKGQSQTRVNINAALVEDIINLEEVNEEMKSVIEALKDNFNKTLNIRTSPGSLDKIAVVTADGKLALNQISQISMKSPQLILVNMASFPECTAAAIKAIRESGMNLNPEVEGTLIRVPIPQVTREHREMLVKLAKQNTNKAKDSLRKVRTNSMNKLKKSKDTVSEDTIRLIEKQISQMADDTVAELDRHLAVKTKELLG
# UniProt Q03426, whole entry: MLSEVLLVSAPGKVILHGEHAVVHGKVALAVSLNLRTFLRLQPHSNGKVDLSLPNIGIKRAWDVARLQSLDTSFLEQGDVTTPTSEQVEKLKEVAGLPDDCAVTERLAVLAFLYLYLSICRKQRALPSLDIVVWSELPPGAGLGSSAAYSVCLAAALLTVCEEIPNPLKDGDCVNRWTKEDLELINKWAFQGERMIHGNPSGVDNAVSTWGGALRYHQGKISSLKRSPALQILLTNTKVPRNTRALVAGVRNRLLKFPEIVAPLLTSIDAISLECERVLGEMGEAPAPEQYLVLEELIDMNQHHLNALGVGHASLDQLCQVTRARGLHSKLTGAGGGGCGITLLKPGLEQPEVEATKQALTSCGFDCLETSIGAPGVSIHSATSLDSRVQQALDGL
# UniProt P55769: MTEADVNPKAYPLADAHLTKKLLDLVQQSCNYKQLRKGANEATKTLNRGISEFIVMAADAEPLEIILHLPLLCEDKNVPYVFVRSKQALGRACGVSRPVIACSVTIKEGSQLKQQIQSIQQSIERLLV
# UniProt P13056: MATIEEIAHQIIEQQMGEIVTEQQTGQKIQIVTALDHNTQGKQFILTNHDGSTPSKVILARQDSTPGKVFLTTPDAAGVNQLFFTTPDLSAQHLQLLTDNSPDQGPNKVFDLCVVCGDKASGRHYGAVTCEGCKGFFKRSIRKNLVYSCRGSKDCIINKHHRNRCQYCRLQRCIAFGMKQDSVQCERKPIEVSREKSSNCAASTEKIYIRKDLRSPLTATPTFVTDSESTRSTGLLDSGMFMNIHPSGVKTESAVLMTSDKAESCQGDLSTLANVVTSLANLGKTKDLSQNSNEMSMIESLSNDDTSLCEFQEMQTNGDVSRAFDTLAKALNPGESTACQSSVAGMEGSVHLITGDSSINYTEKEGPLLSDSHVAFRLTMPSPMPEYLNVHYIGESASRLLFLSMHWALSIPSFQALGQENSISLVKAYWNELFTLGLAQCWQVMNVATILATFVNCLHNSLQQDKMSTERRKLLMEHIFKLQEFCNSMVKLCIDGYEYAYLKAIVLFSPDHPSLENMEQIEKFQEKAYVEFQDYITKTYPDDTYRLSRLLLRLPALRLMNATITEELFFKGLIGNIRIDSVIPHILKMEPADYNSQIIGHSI
# The list shows a part of the results.
# Compound: COc1ccc(Cn2ccc3ccc(C(=O)NO)cc32)cc1
# Assay: dose-dependent thermal stabilisation call (2D-TPP, DLPTP, 10% FDR) (binary (1 = stabilised)); higher = stabilised by the compound
# Conditions: system: HL-60 intact cells; concentration range 0.04-10 µM
row,Target,dose-dependent thermal stabilisation call
1,NFYC (UniProt Q13952),inactive: 0
2,MSH6 (UniProt P52701),inactive: 0
3,NDUFB6 (UniProt O95139),inactive: 0
4,NAGLU (UniProt P54802),inactive: 0
5,NNT (UniProt Q13423),inactive: 0
6,NEK7 (UniProt Q8TDX7),inactive: 0
7,MTMR6 (UniProt Q9Y217),inactive: 0
8,MYST1 (UniProt Q9H7Z6),inactive: 0
9,N4BP2 (UniProt Q86UW6),inactive: 0
10,MTMR2 (UniProt Q13614),inactive: 0
11,NDUFA3 (UniProt O95167),inactive: 0
12,NDUFA1 (UniProt O15239),inactive: 0
13,NPEPPS (UniProt P55786),active: 1
14,NAPRT1 (UniProt Q6XQN6),inactive: 0
15,NFYB (UniProt P25208),inactive: 0
16,NAG (UniProt A2RRP1),inactive: 0
17,NDFIP1 (UniProt Q9BT67),inactive: 0
18,MRRF (UniProt Q96E11),inactive: 0
19,ND5 (UniProt P03915),inactive: 0
20,MVK (UniProt Q03426),inactive: 0
21,NKRF (UniProt O15226),inactive: 0
22,NHP2L1 (UniProt P55769),inactive: 0
23,MTRR (UniProt Q9UBK8),inactive: 0
24,NCAPG (UniProt Q9BPX3),inactive: 0
25,MTERFD2 (UniProt Q7Z6M4),inactive: 0
26,NR2C1 (UniProt P13056),inactive: 0
27,NCKIPSD (UniProt Q9NZQ3),inactive: 0

# Part of the list above in a different format.
row | Target | dose-dependent thermal stabilisation call
10 | MTMR2 (UniProt Q13614) | inactive: 0
17 | NDFIP1 (UniProt Q9BT67) | inactive: 0
